# Values of other authors as cited in publication PMC11324126, “Novel coumarin-6-sulfonamide-chalcone hybrids as glutathione transferase P1-1 inhibitors” (PLOS ONE, 2024).
# System: HepG2 cells
# Set-up: method as in PMID 29944015
# Settings: read-out: IC50 towards HepG2 cells; cited from earlier work
structure (smiles),measurement,value
COc1cccc2c1C(=O)c1c(O)c3c(c(O)c1C2=O)C[C@@](O)(C(=O)CO)C[C@@H]3O[C@H]1C[C@H](N)[C@H](O)[C@H](C)O1 [doxorubicin],IC50,5.43 ± 0.24 µM
